No constants are given. Whether binding was seen depends on the method and setting. In cells and extracts the contact can be indirect. Some entries that bind do so weakly or less than the wild type. Tags and fused reporters may be left off the sequences shown.
Target: T1, Flag-tagged ALK2 (UniProt Q04771)
T1 sequence: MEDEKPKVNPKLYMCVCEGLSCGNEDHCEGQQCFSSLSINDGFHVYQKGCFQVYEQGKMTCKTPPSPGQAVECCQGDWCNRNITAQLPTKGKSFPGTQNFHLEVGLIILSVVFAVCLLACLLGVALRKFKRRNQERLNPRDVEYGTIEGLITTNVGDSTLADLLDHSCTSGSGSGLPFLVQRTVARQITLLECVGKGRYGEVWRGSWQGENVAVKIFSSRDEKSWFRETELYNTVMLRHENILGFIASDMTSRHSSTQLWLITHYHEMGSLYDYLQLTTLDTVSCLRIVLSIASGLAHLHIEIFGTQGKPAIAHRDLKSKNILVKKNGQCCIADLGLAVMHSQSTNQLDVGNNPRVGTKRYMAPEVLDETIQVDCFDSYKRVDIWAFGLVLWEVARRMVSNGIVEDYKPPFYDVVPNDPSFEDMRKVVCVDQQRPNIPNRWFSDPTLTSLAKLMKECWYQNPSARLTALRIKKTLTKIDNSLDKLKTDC
Assay: cross-linking + co-IP; HepG2 cells expressing Flag-ALK2, HA-ALK4 or 6Myc-ActRIIA; cross-linked with BS3 (cell-impermeable); lysates immunoprecipitated with anti-Flag antibody, Western blot with anti-Flag, anti-HA or anti-Myc; also with activin B treatment (slowly migrating bands tended to decrease)

binding: binds
B1: HA-tagged ALK4 (receptor, UniProt P36896 24-505)
chain: SGPRGVQALLCACTSCLQANYTCETDGACMVSIFNLDGMEHHVRTCIPKVELVPAGKPFYCLSSEDLRNTHCCYTDYCNRIDLRVPSGHLKEPEHPSMWGPVELVGIIAGPVFLLFLIIIIVFLVINYHQRVYHNRQRLDMEDPSCEMCLSKDKTLQDLVYDLSTSGSGSGLPLFVQRTVARTIVLQEIIGKGRFGEVWRGRWRGGDVAVKIFSSREERSWFREAEIYQTVMLRHENILGFIAADNKDNGTWTQLWLVSDYHEHGSLFDYLNRYTVTIEGMIKLALSAASGLAHLHMEIVGTQGKPGIAHRDLKSKNILVKKNGMCAIADLGLAVRHDAVTDTIDIAPNQRVGTKRYMAPEVLDETINMKHFDSFKCADIYALGLVYWEIARRCNSGGVHEEYQLPYYDLVPSDPSIEEMRKVVCDQKLRPNIPNWWQSYEALRVMGKMMRECWYANGAARLTALRIKKTLSQLSVQEDVKI
